Test results reported in PubChem BioAssay AID686978 (National Center for Advancing Translational Sciences (NCATS), 2013).
The whole screen tested about 420,000 compounds, of which about 64,000 (15%) were called active. Listed are the inconclusive results; actives and inactives stand elsewhere. Calls come from the whole dose curve; as a rule, active = well fitted inhibition curve with a large enough effect; inconclusive = small, poorly fitted or top-dose-only effect; inactive = flat fitted curve, though single readings scatter.

Assay: qHTS for Inhibitors of human tyrosyl-DNA phosphodiesterase 1 (TDP1): qHTS in cells in absence of CPT; note: nearly all actives have a fitted effect of over 55% in size
Conditions: DT40 Tdp1-/- hTDP1 cells, no CPT, ATP luminescence, 48 h; activity change, negative = growth inhibition: at 46.2 µM (top of the series)
% is set by controls: 0 for no effect and ±100 for the full control effect; potency is the fitted concentration of half-maximal effect.

| SMILES | Potency | activity change, negative = growth inhibition |
| --- | --- | --- |
| CSc1ccc(C(=O)NCC2(N3CCOCC3)CCCCC2)cc1 | inconclusive: 18.4 µM |  |
| CC(C)c1ccc(C(=O)NCC2(N3CCOCC3)CCCCC2)cc1 | inconclusive: 29.1 µM |  |
| O=C(NCC1(N2CCOCC2)CCCCC1)c1cc(F)c(F)cc1Cl | inconclusive: 29.1 µM |  |
| O=[N+]([O-])c1cc([N+](=O)[O-])c(OC2CCCCC2O)c([N+](=O)[O-])c1 (configuration not stated) |  | inconclusive: -14% |
| CC(C)(C)OC(=O)N1CCC(N(C(=O)c2ccccc2)c2ccc(F)cc2)CC1 | inconclusive: 29.1 µM |  |
| COc1ccc(C(=O)NCC2(N3CCCCC3)CCCCC2)c(OC)c1OC | inconclusive: 10.3 µM |  |
| CCCCOc1ccc(C(=O)NCC2(N3CCOCC3)CCCCC2)cc1 | inconclusive: 25.9 µM |  |
| COc1ccccc1C(=O)NCC1(N2CCOCC2)CCCCC1 | inconclusive: 20.6 µM |  |
| CCC(c1nnnn1C1CCCCC1)N1CCC(n2c(=O)[nH]c3ccccc32)CC1 (configuration not stated) | inconclusive: 23.1 µM |  |
| CC(=O)N(c1ccccc1)C1CCNCC1 | inconclusive: 29.1 µM |  |
| CN(C)C1(CNC(=O)c2ccc(C(C)(C)C)cc2)CCCCC1 | inconclusive: 29.1 µM |  |
| CC(C)(C)OC(=O)N1CCC(Nc2ccccc2)CC1 | inconclusive: 32.6 µM |  |
| CCOc1ncccc1C(=O)NCC1(N2CCOCC2)CCCCC1 | inconclusive: 18.4 µM |  |
| O=C(NCC1(N2CCOCC2)CCCCC1)c1cc(Br)ccc1Cl | inconclusive: 11.6 µM |  |
| COc1cc(C(=O)NCC2(N3CCOCC3)CCCCC2)cc(OC)c1C | inconclusive: 20.6 µM |  |
| CCc1cc(C(=O)NCC2(N3CCCCC3)CCCCC2)sc1C | inconclusive: 29.1 µM |  |
| CC(C)(C)OC(=O)N1CCC(N(C(=O)c2ccccc2)c2ccc(Cl)cc2)CC1 | inconclusive: 29.1 µM |  |
